Reference: the supplement of paper PMC12595434, “Development of retinoid nuclear receptor pathway antagonists through targeting aldehyde dehydrogenase 1A3” (iScience, 2025)
Some of the results follow. The data scatter; read single values as rough.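 Many melting curves are irregular; where none melted, Tm was taken as 64 °C.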

By UniProt entry, the sequences of proteins in these tests, tags left out. Where a name states a change or a piece, a line headed by the entry shows the natural chain unless it says otherwise.
UniProt Q9UPT5: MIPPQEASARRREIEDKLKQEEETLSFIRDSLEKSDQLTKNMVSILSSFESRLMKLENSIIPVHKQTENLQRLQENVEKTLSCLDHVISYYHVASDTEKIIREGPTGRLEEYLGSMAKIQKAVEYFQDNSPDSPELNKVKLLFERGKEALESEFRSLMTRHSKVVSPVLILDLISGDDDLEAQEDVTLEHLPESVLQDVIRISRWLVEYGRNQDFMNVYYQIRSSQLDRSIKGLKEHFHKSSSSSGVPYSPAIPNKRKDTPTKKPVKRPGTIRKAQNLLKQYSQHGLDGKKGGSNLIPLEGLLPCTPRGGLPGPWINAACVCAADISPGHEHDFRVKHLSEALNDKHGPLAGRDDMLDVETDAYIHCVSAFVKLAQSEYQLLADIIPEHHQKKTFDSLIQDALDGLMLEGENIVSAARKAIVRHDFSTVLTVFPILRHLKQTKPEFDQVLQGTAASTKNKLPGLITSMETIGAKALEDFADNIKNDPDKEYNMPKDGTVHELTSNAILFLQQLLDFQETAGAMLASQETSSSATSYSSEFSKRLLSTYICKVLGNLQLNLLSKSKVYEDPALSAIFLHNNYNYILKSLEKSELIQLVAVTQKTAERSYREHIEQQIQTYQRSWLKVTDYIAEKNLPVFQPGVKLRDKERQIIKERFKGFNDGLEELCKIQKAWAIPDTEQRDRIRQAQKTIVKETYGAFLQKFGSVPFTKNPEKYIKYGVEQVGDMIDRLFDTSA
UniProt Q9Y296, whole entry: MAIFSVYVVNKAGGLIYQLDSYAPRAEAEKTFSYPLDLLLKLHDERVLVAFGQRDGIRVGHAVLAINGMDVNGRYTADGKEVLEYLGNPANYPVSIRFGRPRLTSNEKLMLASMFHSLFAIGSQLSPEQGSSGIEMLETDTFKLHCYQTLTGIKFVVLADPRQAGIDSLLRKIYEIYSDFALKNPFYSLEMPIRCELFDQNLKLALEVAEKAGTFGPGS
UniProt Q9ULJ3: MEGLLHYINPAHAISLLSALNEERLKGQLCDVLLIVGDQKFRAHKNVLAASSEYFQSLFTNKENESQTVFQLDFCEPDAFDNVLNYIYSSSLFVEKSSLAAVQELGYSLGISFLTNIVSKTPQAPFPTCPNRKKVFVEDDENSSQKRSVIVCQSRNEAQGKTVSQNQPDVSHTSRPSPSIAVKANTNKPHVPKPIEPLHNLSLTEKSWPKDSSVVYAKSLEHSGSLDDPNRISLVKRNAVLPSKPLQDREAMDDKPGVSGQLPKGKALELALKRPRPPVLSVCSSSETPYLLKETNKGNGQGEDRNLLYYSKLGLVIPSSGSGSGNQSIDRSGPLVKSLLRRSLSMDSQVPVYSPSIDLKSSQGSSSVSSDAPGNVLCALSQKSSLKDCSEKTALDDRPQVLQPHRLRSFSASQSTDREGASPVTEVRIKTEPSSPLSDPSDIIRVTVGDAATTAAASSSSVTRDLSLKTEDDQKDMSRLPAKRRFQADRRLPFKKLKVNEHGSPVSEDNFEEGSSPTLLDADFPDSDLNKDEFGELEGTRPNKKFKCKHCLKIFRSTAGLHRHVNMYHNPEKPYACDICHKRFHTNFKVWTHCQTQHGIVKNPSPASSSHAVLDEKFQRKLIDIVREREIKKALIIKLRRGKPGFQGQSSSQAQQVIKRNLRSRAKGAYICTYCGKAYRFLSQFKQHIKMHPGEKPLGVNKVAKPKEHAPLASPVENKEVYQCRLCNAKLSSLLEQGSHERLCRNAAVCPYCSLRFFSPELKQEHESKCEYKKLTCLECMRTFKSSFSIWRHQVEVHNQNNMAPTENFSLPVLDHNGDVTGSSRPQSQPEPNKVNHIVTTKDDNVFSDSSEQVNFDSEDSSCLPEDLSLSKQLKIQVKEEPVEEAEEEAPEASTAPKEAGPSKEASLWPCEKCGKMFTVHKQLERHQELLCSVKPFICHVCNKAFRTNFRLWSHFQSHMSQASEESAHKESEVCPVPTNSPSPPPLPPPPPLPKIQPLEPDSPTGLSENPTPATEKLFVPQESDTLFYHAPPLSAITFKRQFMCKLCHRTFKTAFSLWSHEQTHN
UniProt Q9UI26: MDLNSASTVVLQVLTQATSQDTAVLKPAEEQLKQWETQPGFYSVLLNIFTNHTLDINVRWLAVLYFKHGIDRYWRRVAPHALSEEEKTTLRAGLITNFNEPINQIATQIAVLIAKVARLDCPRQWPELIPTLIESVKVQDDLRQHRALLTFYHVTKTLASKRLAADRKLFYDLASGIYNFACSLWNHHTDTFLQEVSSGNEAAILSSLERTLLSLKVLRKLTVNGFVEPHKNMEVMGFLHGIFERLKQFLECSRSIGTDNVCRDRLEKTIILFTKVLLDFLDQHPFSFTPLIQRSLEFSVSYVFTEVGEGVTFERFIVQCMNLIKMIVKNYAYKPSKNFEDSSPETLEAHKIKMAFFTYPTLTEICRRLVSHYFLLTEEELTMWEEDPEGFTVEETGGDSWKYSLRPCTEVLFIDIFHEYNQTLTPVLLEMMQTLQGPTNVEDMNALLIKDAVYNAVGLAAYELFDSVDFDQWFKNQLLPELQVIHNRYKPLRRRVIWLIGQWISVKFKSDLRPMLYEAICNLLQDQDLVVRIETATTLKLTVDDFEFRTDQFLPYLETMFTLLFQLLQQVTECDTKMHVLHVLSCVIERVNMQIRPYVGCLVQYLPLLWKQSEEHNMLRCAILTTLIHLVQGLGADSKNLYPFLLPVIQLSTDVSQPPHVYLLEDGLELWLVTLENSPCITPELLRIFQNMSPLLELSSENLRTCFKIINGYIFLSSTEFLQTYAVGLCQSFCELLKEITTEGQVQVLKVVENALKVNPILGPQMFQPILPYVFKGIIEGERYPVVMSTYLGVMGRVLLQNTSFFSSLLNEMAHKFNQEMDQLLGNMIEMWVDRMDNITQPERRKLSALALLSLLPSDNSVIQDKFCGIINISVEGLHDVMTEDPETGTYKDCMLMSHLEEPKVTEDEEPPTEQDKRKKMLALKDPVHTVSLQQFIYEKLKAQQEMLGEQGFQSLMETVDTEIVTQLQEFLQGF
UniProt Q9UL26: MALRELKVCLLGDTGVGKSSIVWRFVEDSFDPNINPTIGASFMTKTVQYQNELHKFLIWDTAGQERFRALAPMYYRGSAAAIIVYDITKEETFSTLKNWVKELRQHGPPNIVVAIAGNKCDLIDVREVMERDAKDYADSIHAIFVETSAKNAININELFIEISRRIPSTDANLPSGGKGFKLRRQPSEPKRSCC
UniProt Q9UNZ2: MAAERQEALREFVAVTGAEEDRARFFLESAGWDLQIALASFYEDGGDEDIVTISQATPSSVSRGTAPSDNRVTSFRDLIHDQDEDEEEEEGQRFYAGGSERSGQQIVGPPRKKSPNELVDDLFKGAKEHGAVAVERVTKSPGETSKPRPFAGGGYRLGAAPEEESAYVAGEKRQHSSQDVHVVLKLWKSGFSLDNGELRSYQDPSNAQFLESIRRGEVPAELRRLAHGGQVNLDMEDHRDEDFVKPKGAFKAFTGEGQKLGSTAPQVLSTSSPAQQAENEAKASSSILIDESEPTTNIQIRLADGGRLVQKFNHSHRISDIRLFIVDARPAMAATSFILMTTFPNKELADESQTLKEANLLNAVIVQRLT
UniProt Q9UH17: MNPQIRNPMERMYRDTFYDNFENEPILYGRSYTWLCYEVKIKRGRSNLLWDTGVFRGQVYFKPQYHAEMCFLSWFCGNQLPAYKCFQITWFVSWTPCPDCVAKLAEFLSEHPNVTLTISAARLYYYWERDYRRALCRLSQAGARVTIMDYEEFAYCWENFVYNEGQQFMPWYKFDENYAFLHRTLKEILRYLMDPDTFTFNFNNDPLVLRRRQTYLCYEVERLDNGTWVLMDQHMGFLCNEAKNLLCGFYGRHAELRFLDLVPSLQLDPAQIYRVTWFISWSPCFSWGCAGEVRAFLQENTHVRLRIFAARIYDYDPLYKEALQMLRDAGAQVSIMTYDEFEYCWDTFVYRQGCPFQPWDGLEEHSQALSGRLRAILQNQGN
UniProt Q9UN36: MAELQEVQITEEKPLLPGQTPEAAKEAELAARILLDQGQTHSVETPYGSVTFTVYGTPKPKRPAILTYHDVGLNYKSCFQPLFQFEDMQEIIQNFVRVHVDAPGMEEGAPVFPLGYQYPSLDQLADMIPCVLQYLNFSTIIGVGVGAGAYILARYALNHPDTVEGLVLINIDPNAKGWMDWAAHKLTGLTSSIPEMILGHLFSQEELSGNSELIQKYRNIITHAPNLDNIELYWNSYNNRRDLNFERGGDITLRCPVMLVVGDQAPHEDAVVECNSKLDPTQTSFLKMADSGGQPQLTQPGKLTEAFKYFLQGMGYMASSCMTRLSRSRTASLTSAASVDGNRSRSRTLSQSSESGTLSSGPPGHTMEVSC
UniProt Q9UP95: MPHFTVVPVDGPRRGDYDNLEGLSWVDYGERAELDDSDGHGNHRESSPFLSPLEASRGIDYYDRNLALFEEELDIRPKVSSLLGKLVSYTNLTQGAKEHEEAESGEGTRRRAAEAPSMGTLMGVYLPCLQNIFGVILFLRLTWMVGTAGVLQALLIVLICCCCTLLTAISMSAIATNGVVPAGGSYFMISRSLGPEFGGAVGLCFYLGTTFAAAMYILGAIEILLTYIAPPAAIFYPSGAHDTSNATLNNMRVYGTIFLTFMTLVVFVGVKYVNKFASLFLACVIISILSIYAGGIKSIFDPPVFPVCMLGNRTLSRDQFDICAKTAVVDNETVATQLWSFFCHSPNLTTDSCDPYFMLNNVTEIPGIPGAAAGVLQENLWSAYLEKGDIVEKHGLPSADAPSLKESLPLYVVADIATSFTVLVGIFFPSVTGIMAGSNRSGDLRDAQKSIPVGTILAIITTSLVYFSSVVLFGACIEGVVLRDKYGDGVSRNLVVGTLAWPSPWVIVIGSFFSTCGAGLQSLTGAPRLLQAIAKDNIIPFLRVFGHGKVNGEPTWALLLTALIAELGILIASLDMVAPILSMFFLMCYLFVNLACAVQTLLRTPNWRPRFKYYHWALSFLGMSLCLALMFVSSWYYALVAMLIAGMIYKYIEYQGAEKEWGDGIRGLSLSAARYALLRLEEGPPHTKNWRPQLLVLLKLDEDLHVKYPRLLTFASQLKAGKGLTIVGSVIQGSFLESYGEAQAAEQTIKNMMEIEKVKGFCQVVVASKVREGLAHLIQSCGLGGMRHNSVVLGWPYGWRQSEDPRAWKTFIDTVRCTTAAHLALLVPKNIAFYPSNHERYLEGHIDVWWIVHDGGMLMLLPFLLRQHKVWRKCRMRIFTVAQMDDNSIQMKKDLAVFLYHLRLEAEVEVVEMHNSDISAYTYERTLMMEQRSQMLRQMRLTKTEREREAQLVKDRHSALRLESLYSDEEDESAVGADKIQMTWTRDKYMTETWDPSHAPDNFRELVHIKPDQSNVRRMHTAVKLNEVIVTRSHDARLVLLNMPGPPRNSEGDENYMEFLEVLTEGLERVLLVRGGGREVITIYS
UniProt Q9UJY4: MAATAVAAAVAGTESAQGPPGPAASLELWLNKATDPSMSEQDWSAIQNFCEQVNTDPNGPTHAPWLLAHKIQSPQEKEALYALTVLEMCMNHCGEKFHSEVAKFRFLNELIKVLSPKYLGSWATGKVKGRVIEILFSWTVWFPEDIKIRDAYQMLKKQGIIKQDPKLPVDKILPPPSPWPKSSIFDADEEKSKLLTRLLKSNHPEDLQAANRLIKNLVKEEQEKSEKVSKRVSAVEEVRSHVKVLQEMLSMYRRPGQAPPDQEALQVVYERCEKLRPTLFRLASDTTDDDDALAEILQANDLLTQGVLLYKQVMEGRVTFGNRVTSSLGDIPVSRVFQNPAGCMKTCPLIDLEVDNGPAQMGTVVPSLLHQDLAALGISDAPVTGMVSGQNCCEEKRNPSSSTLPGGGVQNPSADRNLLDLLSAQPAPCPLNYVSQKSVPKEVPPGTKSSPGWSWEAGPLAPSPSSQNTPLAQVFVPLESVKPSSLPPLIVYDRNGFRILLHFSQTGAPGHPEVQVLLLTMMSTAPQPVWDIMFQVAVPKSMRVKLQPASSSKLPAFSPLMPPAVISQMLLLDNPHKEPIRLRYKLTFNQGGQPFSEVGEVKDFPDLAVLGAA
UniProt Q9UKX7: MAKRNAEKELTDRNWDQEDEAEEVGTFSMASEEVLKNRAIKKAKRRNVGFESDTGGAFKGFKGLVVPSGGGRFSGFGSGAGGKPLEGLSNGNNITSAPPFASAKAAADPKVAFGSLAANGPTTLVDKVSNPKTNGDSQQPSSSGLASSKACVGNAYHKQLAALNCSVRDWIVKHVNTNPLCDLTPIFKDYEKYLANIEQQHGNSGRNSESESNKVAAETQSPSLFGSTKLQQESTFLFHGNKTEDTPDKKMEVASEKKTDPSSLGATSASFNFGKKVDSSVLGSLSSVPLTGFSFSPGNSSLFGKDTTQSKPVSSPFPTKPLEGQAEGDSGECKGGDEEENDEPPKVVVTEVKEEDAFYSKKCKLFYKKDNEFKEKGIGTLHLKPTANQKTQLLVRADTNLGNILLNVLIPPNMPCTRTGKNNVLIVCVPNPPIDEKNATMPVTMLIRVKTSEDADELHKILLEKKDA

Compound: CCc1cnccc1C(=O)Nc1cc2c(cc1F)NC(=O)CC2
Experiment: melting temperature shift (DMSO Tm minus MBE1-treated Tm) in cellular thermal proteome profiling; higher = less thermal stabilization by MBE1 (negative = stabilized by MBE1)
Conditions: A375

Target | melting temperature shift (MBE1 concentration: 1 uM) | melting temperature shift (MBE1 concentration: 100 nM)
ITM2B (UniProt Q9Y287) | 1.45 °C | 
UniProt Q9ULL5 | -0.448 °C | 0.0192 °C
UniProt Q9Y250 | -1.32 °C | 
TPX2 (UniProt Q9ULW0) | -3.73 °C | 
UniProt Q9Y2B0 |  | -1.05 °C
NAGPA (UniProt Q9UK23) |  | -6.63 °C
PUF60 (UniProt Q9UHX1) | -0.586 °C | 0.202 °C
MAPRE3 (UniProt Q9UPY8) | -0.446 °C | 0.94 °C
HPS5 (UniProt Q9UPZ3) | 0.739 °C | -0.747 °C
UniProt Q9UHY8 | -0.395 °C | -0.113 °C
EXOC7 (UniProt Q9UPT5) | -0.438 °C | -0.499 °C
UniProt Q9UI43 | 0.104 °C | -0.446 °C
GGA1 (UniProt Q9UJY5) | -0.055 °C | 0.0733 °C
UniProt Q9UGU5 | -0.321 °C | -0.525 °C
EXOC6B (UniProt Q9Y2D4) | -4.4 °C | -1.63 °C
AK3 (UniProt Q9UIJ7) | 0 °C | -1.17 °C
TBC1D2B (UniProt Q9UPU7) | -0.677 °C | 0.103 °C
UniProt Q9UH62 | 0 °C | 0.353 °C
SLC7A11 (UniProt Q9UPY5) | 2.83 °C | -0.269 °C
DUSP12 (UniProt Q9UNI6) | 0.397 °C | -0.11 °C
RABGEF1 (UniProt Q9UJ41) | 0.177 °C | 0.537 °C
DBR1 (UniProt Q9UK59) | -1.68 °C | -1.81 °C
SHOC2 (UniProt Q9UQ13) | 0.771 °C | -1.11 °C

Target | melting temperature shift (MBE1 concentration: 1 uM) | melting temperature shift (MBE1 concentration: 100 nM)
CYB5R1 (UniProt Q9UHQ9) | 0.208 °C | -0.951 °C
CPSF3 (UniProt Q9UKF6) | -0.724 °C | -0.0733 °C
CHORDC1 (UniProt Q9UHD1) | 0.33 °C | 0.302 °C
ANKRD50 (UniProt Q9ULJ7) | -0.739 °C | -0.823 °C
LCMT1 (UniProt Q9UIC8) | 0.104 °C | -0.986 °C
HACL1 (UniProt Q9UJ83) | -1.11 °C | 0.121 °C
UniProt Q9UHB7 | -0.41 °C | -1.15 °C
ACAD8 (UniProt Q9UKU7) | 0.868 °C | -0.684 °C
TRAPPC4 (UniProt Q9Y296) | 0.634 °C | -2.66 °C
UniProt Q9ULJ3 | 0.835 °C | -0.14 °C
LIMCH1 (UniProt Q9UPQ0) | -0.403 °C | -1.24 °C
MRTO4 (UniProt Q9UKD2) | -1.11 °C | -0.863 °C
UniProt Q9Y297 | 0.195 °C | 1.27 °C
NAGK (UniProt Q9UJ70) | 0.299 °C | -0.818 °C
SYNRG (UniProt Q9UMZ2) | 0.434 °C | 0.0611 °C
MAD2L2 (UniProt Q9UI95) | -2.06 °C | -1.08 °C
ACIN1 (UniProt Q9UKV3) | 0.778 °C | -0.503 °C
APPL1 (UniProt Q9UKG1) | -0.134 °C | 0.525 °C
UniProt Q9UJ68 | -0.16 °C | -0.446 °C
PRPF19 (UniProt Q9UMS4) | -1.09 °C | -0.855 °C
ENOPH1 (UniProt Q9UHY7) | 0.623 °C | 0.946 °C
UniProt Q9UKU9 | 0.181 °C | -0.899 °C
FEM1B (UniProt Q9UK73) | 0.379 °C | -0.937 °C

Whole records as entered above.
AK3 (UniProt Q9UIJ7) is listed with melting temperature shift (MBE1 concentration: 1 uM): 0 °C; melting temperature shift (MBE1 concentration: 100 nM): -1.17 °C
HACL1 (UniProt Q9UJ83) is listed with melting temperature shift (MBE1 concentration: 1 uM): -1.11 °C; melting temperature shift (MBE1 concentration: 100 nM): 0.121 °C

Additional results.

Target | melting temperature shift (MBE1 concentration: 1 uM) | melting temperature shift (MBE1 concentration: 100 nM)
CNOT6 (UniProt Q9ULM6) | -0.48 °C | -0.0527 °C
PISD (UniProt Q9UG56) | -1.11 °C | -1.22 °C
DICER1 (UniProt Q9UPY3) | 0.501 °C | 1.29 °C
RALY (UniProt Q9UKM9) | 0.189 °C | 0.385 °C
UniProt Q9ULE6 | 0.376 °C | -0.376 °C
LAMTOR3 (UniProt Q9UHA4) | 1.64 °C | 0.585 °C
CDC23 (UniProt Q9UJX2) | 0.238 °C | 0.58 °C
NUDC (UniProt Q9Y266) | -0.503 °C | -0.409 °C
UniProt Q9UQ49 | -0.701 °C | 0.122 °C
IPO11 (UniProt Q9UI26) | 0.629 °C | 0.0794 °C
AGO1 (UniProt Q9UL18) | 0.922 °C | -2.34 °C
GNE (UniProt Q9Y223) | -0.983 °C | -1.37 °C
GINS2 (UniProt Q9Y248) | 0.556 °C | 0.946 °C
FARSA (UniProt Q9Y285) | 0.391 °C | 0.586 °C
ANAPC4 (UniProt Q9UJX5) | 0.446 °C | -0.171 °C
SLC5A6 (UniProt Q9Y289) | -0.522 °C | -2.8 °C
RUVBL2 (UniProt Q9Y230) | -1.28 °C | -1.19 °C
UniProt Q9UHF7 | 0.983 °C | 0.989 °C
CEP131 (UniProt Q9UPN4) | -0.855 °C | -1.56 °C
SMG5 (UniProt Q9UPR3) | 0.287 °C | 0.476 °C
VPS4A (UniProt Q9UN37) | -0.293 °C | 0.299 °C
AKAP8L (UniProt Q9ULX6) | -0.493 °C | -0.737 °C
RAB22A (UniProt Q9UL26) | 1.16 °C | -1.07 °C

Target | melting temperature shift (MBE1 concentration: 1 uM) | melting temperature shift (MBE1 concentration: 100 nM)
UniProt Q9UQ16 | 0.33 °C | 1.29 °C
MKL2 (UniProt Q9ULH7) | -0.48 °C | -0.0733 °C
PCYOX1 (UniProt Q9UHG3) | -1.06 °C | -1.58 °C
UniProt Q9UHJ6 | 0.58 °C | 0.238 °C
UniProt Q9UK58 | -0.0672 °C | 0.287 °C
USP24 (UniProt Q9UPU5) | -0.14 °C | 0.586 °C
NENF (UniProt Q9UMX5) | -4.12 °C | 0 °C
UniProt Q9ULQ0 | 0.171 °C | 0.0122 °C
NSFL1C (UniProt Q9UNZ2) | -0.318 °C | -0.349 °C
UniProt Q9UH17 | -0.989 °C | -0.0047 °C
UniProt Q9UPW0 | 0.104 °C | 0.36 °C
BAG5 (UniProt Q9UL15) | 0.0244 °C | 0.314 °C
DIMT1 (UniProt Q9UNQ2) | -1.22 °C | -0.771 °C
UniProt Q9UN81 | 0.458 °C | -0.389 °C
GMEB2 (UniProt Q9UKD1) | -1.03 °C | -0.308 °C
UniProt Q9UN36 | -0.754 °C | -0.55 °C
FNDC3A (UniProt Q9Y2H6) | -0.781 °C | -1.19 °C
UniProt Q9ULG1 | -1.51 °C | -0.812 °C
SLC12A4 (UniProt Q9UP95) | 0.402 °C | -0.476 °C
SAP30BP (UniProt Q9UHR5) | -0.822 °C | -1.1 °C
GGA2 (UniProt Q9UJY4) | -1.43 °C | -1.48 °C
NUP50 (UniProt Q9UKX7) | -0.359 °C | -0.818 °C
